In PMC11810119 one finds binding data, which are given here for 14 molecules.

Protein sequences, listed by entry. Tags and fused reporters are not part of them.
UniProt O35889: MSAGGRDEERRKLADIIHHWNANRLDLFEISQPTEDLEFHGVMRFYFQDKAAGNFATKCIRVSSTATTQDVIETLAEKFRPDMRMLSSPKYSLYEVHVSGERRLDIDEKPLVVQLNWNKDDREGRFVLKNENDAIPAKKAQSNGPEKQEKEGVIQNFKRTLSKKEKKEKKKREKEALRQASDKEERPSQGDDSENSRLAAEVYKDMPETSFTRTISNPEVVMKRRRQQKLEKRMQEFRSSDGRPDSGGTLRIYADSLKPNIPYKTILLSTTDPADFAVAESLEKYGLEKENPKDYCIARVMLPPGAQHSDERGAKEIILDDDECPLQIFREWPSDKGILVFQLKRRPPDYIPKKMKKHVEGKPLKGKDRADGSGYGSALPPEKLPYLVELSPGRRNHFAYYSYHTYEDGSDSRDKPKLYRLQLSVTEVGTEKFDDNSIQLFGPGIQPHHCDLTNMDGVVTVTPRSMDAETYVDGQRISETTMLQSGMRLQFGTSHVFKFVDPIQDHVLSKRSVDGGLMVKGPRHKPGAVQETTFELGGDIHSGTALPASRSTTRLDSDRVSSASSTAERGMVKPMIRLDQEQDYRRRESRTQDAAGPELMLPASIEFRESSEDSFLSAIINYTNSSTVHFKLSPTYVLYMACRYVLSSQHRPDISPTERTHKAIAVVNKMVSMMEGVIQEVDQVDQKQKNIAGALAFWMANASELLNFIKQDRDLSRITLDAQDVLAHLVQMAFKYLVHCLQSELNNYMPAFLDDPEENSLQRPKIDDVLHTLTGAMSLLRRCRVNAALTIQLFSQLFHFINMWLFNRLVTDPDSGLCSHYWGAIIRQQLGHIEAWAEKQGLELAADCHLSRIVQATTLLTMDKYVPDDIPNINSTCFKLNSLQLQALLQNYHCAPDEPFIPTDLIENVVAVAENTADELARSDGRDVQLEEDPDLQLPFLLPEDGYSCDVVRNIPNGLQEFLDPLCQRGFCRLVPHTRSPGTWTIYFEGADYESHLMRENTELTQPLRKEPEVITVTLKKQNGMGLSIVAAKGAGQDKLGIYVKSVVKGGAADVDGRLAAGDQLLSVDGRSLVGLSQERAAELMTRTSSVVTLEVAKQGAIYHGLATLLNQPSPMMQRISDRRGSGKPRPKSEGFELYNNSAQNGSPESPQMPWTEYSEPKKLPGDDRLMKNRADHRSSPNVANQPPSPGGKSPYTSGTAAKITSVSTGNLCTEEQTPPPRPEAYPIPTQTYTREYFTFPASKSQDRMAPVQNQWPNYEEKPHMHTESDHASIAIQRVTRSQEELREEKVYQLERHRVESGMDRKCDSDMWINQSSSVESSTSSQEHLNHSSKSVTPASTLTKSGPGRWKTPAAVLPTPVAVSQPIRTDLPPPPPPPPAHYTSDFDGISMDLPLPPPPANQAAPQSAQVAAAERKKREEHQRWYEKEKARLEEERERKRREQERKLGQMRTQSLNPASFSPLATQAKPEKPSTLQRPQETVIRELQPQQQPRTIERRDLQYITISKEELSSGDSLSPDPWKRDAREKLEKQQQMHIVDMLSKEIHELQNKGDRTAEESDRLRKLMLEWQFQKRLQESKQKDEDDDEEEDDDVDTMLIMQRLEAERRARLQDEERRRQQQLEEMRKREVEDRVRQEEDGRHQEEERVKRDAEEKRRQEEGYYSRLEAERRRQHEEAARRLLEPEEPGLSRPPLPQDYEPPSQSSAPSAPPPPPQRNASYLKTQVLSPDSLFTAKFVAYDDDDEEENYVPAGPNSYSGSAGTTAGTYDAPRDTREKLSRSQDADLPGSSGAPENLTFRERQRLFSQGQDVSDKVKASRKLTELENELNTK
UniProt A0A8I3S099: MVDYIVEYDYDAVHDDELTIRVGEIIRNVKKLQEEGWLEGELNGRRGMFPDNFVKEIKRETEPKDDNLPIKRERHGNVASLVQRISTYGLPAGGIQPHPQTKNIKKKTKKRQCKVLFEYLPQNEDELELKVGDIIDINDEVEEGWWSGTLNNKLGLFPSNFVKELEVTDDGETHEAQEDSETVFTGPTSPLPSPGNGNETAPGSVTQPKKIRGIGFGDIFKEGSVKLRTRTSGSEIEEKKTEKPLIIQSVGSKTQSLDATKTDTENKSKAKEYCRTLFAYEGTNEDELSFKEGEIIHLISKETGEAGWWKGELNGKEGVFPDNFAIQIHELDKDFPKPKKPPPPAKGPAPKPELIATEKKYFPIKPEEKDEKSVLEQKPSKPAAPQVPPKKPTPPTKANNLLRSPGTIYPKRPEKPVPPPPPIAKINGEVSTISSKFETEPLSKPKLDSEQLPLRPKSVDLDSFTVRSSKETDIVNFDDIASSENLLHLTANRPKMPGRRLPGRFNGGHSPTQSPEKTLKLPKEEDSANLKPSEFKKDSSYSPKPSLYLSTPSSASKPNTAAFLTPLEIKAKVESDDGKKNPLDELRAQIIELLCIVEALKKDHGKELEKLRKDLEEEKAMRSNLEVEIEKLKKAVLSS
UniProt A0A8I3NCX0: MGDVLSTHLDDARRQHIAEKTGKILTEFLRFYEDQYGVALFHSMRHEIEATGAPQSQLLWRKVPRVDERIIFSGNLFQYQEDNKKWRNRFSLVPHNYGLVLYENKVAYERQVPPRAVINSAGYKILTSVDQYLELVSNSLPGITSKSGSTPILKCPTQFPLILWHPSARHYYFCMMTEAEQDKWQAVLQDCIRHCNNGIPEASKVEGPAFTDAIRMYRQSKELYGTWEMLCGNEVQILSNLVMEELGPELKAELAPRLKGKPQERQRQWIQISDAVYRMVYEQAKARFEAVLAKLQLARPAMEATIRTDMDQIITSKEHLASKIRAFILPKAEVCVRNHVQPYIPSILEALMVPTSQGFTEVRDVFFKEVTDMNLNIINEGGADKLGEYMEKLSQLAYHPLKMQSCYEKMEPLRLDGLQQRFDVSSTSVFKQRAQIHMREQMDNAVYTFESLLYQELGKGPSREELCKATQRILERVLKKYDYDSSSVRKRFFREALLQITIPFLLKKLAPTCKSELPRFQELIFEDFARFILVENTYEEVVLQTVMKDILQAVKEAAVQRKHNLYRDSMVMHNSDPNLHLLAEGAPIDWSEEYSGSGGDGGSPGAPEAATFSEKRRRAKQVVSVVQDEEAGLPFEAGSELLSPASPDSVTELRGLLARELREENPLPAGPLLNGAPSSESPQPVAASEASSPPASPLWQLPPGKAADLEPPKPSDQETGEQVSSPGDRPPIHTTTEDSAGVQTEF
UniProt Q28298: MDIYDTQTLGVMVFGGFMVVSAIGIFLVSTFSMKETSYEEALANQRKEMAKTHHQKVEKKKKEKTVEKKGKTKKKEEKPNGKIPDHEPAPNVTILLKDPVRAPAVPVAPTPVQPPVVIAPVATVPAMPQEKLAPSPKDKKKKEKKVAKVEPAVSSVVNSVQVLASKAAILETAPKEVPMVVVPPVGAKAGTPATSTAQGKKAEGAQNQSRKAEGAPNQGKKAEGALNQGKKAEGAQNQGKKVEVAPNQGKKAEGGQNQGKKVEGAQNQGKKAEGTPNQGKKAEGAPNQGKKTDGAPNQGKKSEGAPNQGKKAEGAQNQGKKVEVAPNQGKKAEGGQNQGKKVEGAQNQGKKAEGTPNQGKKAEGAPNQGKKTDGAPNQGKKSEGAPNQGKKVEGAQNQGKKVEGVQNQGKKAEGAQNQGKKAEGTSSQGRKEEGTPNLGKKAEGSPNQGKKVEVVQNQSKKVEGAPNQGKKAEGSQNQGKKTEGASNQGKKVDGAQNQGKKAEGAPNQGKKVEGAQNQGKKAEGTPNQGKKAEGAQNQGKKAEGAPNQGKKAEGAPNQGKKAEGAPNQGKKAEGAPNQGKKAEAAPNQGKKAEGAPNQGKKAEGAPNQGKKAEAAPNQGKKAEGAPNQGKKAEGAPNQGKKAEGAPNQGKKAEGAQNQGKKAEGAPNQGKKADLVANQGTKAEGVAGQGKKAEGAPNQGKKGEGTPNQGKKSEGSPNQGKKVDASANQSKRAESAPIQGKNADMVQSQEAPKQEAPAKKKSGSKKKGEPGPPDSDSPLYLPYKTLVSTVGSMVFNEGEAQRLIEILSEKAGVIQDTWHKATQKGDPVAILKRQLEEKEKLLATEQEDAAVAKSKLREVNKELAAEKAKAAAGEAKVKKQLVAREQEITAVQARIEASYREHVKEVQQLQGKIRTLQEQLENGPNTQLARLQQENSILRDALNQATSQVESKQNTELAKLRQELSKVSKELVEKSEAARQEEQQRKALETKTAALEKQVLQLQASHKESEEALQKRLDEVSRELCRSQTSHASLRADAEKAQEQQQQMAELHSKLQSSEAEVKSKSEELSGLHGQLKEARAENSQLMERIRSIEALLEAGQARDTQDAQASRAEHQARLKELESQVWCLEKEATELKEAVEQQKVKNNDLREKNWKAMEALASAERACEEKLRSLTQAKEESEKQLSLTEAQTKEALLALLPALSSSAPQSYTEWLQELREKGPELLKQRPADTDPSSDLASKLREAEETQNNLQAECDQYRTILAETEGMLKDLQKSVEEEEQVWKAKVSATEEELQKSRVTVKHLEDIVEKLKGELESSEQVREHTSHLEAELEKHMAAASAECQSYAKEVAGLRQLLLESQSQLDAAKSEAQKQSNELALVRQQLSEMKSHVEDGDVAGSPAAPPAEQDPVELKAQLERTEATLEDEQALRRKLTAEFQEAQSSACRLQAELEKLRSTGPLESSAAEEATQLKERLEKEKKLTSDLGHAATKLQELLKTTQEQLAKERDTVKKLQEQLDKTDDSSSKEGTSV
UniProt P50551: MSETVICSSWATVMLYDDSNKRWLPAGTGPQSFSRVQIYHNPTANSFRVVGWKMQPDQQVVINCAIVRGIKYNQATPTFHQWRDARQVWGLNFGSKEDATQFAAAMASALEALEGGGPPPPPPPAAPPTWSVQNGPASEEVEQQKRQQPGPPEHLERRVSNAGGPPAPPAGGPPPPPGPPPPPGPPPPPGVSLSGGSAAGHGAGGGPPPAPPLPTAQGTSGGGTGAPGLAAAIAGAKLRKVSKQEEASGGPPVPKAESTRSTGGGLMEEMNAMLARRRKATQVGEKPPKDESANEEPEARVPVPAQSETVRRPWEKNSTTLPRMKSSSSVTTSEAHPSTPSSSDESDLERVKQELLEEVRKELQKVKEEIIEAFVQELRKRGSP
UniProt A0A8I3PA03: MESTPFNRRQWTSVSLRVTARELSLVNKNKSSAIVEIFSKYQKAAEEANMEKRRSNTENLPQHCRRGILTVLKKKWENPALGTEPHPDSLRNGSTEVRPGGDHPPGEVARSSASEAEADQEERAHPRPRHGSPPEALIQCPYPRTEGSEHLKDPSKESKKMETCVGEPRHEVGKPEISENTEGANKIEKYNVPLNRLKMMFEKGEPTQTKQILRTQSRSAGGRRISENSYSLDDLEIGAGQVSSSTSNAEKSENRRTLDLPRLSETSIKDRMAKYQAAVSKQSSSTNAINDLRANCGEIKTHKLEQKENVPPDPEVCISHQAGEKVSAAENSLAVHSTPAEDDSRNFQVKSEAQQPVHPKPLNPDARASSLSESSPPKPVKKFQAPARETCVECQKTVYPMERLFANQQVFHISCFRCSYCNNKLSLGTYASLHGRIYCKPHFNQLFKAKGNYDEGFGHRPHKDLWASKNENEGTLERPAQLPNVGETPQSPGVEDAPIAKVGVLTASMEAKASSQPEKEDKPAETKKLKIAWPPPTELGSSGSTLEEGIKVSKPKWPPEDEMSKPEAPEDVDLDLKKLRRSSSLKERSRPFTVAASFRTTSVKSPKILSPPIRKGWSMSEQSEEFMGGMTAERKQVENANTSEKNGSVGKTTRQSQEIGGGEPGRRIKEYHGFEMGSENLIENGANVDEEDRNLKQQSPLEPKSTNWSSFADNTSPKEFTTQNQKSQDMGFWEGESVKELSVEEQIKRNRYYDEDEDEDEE
UniProt A0A8I3RZY6: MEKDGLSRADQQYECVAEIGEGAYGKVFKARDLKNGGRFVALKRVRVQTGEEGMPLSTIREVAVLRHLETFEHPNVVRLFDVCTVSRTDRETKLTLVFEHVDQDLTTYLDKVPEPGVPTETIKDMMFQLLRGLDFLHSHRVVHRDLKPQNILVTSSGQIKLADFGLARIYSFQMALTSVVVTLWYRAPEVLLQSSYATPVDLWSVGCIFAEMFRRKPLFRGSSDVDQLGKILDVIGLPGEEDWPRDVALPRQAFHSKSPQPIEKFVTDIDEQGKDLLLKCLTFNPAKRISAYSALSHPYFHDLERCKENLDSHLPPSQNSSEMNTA
UniProt A0A8I3M9P4: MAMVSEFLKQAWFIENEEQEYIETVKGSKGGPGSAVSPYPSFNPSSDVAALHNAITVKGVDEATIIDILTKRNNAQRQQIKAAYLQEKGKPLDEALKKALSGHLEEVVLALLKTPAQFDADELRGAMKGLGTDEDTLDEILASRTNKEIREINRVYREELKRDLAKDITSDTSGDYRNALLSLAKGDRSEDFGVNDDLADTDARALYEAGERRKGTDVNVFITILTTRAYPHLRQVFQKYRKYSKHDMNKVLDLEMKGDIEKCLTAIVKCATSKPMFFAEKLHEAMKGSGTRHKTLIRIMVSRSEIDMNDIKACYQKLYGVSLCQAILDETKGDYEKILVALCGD

The target in one test is Afadin-BL (rat) (UniProt O35889). Put plainly: proximity labelling; BioID: BirA*-Afadin fusion expressed in MDCK cells (duplicates; one replicate each also in ZO-1/ZO-2 knock-down MDCK cells), 50 µM biotin for 24 h, lysates on streptavidin Dynabeads, trypsin digestion, label-free LC-MS/MS; hits SAINT >=0.9 versus BirA* alone.
A further test addresses BL-Afadin (rat) (UniProt O35889). The test is described as above.

No constants are given. Whether binding was seen depends on the method and setting. Binding seen in cells or lysates may run through a third protein. Here binding means that the protein was enriched with, or labelled near, the bait; the list need not be complete.

As for “CD2 associated protein (from UniProt A0A8I3S099 1-639)”, the binding entry with Afadin-BL (rat) and with BL-Afadin (rat) was “binds” in each case.
“Niban apoptosis regulator 2=FAM129B (from UniProt A0A8I3NCX0 1-746)”: the binding entry with Afadin-BL (rat) was “binds”.
Still for that read-out and setting: under “Ribosome binding protein 1 (from UniProt Q28298 1-1534)” stands “binds”.
Turning to “Vasodilator stimulated phosphoprotein (from UniProt P50551 1-384)”, the binding result in the test with Afadin-BL (rat) and with BL-Afadin (rat) was “binds” in each case.
On to “DnaJ heat shock protein family (Hsp40) member B1 (from UniProt A0A8I3PMR7 1-340)”, for which the binding result with Afadin-BL (rat) is “binds”.
Consider “Leucine zipper protein 1 (from UniProt A0A8I3P0F9 1-1074)”, for which the binding result with Afadin-BL (rat) and with BL-Afadin (rat) was “binds” throughout.
As to “Palmitoyltransferase ZDHHC5 (from UniProt Q2THW9 1-715)”, the binding result with Afadin-BL (rat) is “binds”.
With “LIM domain and actin binding 1=EPLIN (from UniProt A0A8I3PA03 1-762)”, in the test with BL-Afadin (rat), the binding entry is reported as “binds”.
Take “Talin 1 (from UniProt A0A8I3N6K0 1-2558)”: the binding result in the test with BL-Afadin (rat) is listed as “binds”.
In the case of “Cyclin dependent kinase 6 (from UniProt A0A8I3RZY6 1-326)”, in the test with Afadin-BL (rat), the binding result is recorded as “binds”.
In the case of “Tankyrase 1 binding protein 1 (from UniProt A0A8I3S5F5 1-1737)”, the binding entry in the test with BL-Afadin (rat) was “binds”.
As for “Exocyst complex component 3 (from UniProt A0A8I3QBX3 1-745)”, the binding result with Afadin-BL (rat) is listed as “binds”.
On the same count and under the same terms, with Annexin (from UniProt A0A8I3M9P4 1-345) the entry was “binds”.

B1: Uveal autoantigen with coiled-coil domains and ankyrin repeats (protein, UniProt Q9GL21 1-1415)
chain: MPSSLLLATRNQILSMMNCWFSCAPKNRHAADWNKYDDRLMKAAERGDVEKVSSILAKKGINPGKLDVEGRSAFHVVASKGNLECLNAILIHGVDITTSDTAGRNALHLAAKYGHALCLQKLLQYNCPTEHADLQGRTALHDAAMADCPSSIQLLCDHGASVNAKDVDGRTPLVLATQMCRPAICQLLIDRGAEINSRDKQNRTALMLGCEYGCKDAVEVLLKNGADVSLLDALGHDSSYYARIGDNLDILTLLKTASENTNKGRELWKKGPSLQQRNLPYMLDEVNVKSSQREHRNIQELEIENEDLKDRLRKIQQEQRILLDKVNGLQLQLNEEVMVADDLESEKEKLKSLLVAKEKQHEESLRTIESLKNRFKYFESDHLGSGSHFSNRKEDMLLKQGQMYMTCTSPGVPAHMQSRSMLRPLELSLPNQTSYSENDLLKKELEAMRTFCESAKQDRLKLQNELAHKVAECKALGLECERIKEDSDEQIKQLEDALKDVQKRMYESEGKVKQMQTHFLALKEHLTSEAAIGNHRLMEELKDQLKDMKAKYEGASAEVGKLRNQIKQNELLVEQFRRDEGKLVEENKRLQKELSMCETERDKKGRRVAEVEGQVKELLAKLTLSVPTEKFESMKSLLSSEVNEKVKKIGETEREYEKSLTEIRQLRRELENCKAKLAQHVKPEEHEQLKSRLEQRAGELAKKVTELTSKNQVLQRDVEKVYLDNKLLNQQVHNLTSEIKSHYVPLQVSEEMKKSHDVTVEELKKQLLDVTQKCADKQLEMEKLLLENDSLSKNVSRLETVFVPPEKHQKEVTALKSSVADLKRQLLELNKKCGEDREKINALVSENTSLKKTLSNQYVPAKTHEEVKTALSGTLDKTNRELLDAKKKWEDLNQEFVKTKDENEILKRNLENTQSQIKAEYISLREHEEKMSAINQNMKSVQDNSAEILANYRKGQEEIVTLHAEIEAQKKELDTIQECIKLKYAPIISFEECERKFKATEKELKEQLSEQMQKYHVREEEAKKYKQENDKLKKEIFTLQKDLKDKNVLIENSHDMERALNRKAEELNKQLKDLLQKYSEIKTEKEKLVDDNARQTSELLAAQTLLQKQHVPLEQVETLKKSLNSTIEHLKEELKNKQKCYEKEQQTVAKLHQMLENQKNSSVPLGEHLRVKEAFEKEVGMIKASLREKEEESQNKTEEVSKLQSEVQDTKQALQKLETREVVDLSKYKATKSDLETQISNLNEKLANLNRKYEEACEEVLRAQRKQLSAKDEKELLHFSIEQEIKDQQERCDKSLTTITELQKRIQESAKQIEAKDNKITELLNDVERLKQALSGLSQLTSPSGSPSKRQSQLIDTLQHQVKSLQQQLADTDRQHQEVIAIYRTHLLSAAQGHMDEDVQAALLQIIQMRQGLVC
As to B1, in the test with Afadin-BL (rat), the binding entry is given as “binds”.
